# In patent US6869961B2, “Store operated calcium influx inhibitors and methods of use” (Cellegy Pharmaceuticals, Inc., priority 2001, dated 2005):
# At least one structure is not confirmed: it was looked up by name or label, or the drawing left a doubt.
# Tested on: NFAT
# Assay: NFAT-regulated luciferase reporter assay in Jurkat cells
# Assay type: cell-based, human
# Description: The biological activity of column fractions and crystalline material was assessed in the NFAT activation assay using Jurkat cells stably transfected with NFAT-regulated luciferase reporter (see, FIGS. 9-14).
# Jurkat cells, in standard medium, were seeded in 24-well dishes at 1 million cells per well and treated as follows. […] The cells were harvested 5 hours later and luciferase activity was measured in a luminometer.
structure (smiles),measurement,value
CCC(C)(C)C(=O)O[C@H]1C[C@@H](C)C=C2C=C[C@H](C)[C@H](CC[C@@H]3C[C@@H](O)CC(=O)O3)[C@H]21 [simvastatin],inhibition of NFAT activity,able to inhibit
